Results are given in words; binding and its absence hold for the method and conditions named.
Target: HtrA2 N216A/S219A (SBP double mutant), mature (Δ133 HtrA2)
Test: condition: 0.4 mM activator peptide injected into 20 to 50 µM protein; ITC; MicroCal ITC200; 200 µl of wild type or N216A/S219A HtrA2 (20 to 50 µM) in the cell, titrated with 1.5 µl injections of 0.4 mM activator peptide; 20 mM Na2HPO4/NaH2PO4, 100 mM NaCl, pH 7.8; 25°C; one site-binding model; both purified

B1: 13mer activating peptide SEHRRHFPNCFFV (peptide)
peptide: SEHRRHFPNCFFV
binding: no binding
